The target of experiment [1] is T1, GST-Galectin-8 (human).
T1 sequence: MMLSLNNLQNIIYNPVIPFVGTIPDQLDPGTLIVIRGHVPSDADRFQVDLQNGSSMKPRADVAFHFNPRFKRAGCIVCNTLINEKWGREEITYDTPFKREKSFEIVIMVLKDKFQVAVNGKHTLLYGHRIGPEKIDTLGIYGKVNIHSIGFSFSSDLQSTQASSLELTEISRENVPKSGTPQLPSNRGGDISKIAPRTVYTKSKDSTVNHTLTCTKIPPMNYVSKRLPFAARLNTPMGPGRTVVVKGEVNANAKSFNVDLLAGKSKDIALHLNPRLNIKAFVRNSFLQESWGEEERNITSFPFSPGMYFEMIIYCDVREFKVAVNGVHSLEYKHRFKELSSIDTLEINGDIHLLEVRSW
The experiment can be described thus: GST pull-down of in vitro translated 35S-labelled Myc-HA-TRIM.

Protein sequences, listed by entry. Tags and fused reporters are not part of them. Lines headed by an entry give the natural chain unless they say otherwise; changes in a name come on top.
UniProt P17931: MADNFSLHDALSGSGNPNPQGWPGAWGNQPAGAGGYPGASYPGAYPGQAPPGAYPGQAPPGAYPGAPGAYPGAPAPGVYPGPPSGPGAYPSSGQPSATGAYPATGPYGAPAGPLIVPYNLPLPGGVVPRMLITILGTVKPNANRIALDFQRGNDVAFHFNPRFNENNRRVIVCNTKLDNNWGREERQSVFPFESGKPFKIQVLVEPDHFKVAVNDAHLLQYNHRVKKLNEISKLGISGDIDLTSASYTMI
UniProt Q9C030: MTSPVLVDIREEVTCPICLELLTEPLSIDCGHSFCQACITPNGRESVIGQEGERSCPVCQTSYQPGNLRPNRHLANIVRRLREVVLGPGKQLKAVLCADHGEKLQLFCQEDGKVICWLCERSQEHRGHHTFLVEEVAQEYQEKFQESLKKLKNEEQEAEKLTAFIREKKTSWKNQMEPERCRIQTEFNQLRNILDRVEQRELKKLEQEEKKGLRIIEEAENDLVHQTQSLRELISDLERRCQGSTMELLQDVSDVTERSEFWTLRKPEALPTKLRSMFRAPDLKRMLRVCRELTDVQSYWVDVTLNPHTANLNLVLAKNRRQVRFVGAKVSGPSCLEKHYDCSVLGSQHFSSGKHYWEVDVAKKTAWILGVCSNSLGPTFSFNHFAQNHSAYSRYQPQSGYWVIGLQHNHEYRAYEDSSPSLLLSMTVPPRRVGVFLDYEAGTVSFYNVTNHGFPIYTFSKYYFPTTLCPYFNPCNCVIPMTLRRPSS
UniProt Q8IYM9: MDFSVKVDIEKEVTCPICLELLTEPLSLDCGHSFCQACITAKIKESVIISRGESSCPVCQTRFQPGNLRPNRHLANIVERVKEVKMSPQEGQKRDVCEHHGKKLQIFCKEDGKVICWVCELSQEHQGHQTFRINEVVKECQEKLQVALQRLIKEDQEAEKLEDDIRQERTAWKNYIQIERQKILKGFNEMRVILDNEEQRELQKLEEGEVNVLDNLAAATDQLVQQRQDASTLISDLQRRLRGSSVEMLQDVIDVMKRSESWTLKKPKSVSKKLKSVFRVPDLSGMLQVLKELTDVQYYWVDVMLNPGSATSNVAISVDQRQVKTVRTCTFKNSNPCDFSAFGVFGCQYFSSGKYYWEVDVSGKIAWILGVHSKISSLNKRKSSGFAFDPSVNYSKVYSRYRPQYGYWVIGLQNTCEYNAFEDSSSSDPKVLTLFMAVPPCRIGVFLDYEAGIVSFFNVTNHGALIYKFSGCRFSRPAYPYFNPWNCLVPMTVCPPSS

In experiment [2] the target is GST-Galectin-3 (human) (UniProt P17931). The experiment is described as above.

No constants are given. Whether binding was seen depends on the method and setting. In cells and extracts the contact can be indirect. Some binding calls cover weakened binding; strength is not graded here. For some of these results: Tags and fused reporters may be left off the sequences shown.

Regarding “35S-Myc-HA-TRIM6 (in vitro translated) (from UniProt Q9C030 1-488)”, the binding entry in experiment [1] and in experiment [2] was “binds” each time.

Regarding “35S-Myc-HA-TRIM22 (in vitro translated) (from UniProt Q8IYM9 1-498)”, the binding entry in experiment [1] and in experiment [2] was “binds” throughout.

The record behind these values is US20240261378A1.
